± gives the standard deviation of the averaged measurements. The list shows a part of the results.

By UniProt entry, the sequences of proteins in these tests, tags left out. Where a name states a change or a piece, a line headed by the entry shows the natural chain unless it says otherwise.
UniProt Q9UPQ9, whole entry: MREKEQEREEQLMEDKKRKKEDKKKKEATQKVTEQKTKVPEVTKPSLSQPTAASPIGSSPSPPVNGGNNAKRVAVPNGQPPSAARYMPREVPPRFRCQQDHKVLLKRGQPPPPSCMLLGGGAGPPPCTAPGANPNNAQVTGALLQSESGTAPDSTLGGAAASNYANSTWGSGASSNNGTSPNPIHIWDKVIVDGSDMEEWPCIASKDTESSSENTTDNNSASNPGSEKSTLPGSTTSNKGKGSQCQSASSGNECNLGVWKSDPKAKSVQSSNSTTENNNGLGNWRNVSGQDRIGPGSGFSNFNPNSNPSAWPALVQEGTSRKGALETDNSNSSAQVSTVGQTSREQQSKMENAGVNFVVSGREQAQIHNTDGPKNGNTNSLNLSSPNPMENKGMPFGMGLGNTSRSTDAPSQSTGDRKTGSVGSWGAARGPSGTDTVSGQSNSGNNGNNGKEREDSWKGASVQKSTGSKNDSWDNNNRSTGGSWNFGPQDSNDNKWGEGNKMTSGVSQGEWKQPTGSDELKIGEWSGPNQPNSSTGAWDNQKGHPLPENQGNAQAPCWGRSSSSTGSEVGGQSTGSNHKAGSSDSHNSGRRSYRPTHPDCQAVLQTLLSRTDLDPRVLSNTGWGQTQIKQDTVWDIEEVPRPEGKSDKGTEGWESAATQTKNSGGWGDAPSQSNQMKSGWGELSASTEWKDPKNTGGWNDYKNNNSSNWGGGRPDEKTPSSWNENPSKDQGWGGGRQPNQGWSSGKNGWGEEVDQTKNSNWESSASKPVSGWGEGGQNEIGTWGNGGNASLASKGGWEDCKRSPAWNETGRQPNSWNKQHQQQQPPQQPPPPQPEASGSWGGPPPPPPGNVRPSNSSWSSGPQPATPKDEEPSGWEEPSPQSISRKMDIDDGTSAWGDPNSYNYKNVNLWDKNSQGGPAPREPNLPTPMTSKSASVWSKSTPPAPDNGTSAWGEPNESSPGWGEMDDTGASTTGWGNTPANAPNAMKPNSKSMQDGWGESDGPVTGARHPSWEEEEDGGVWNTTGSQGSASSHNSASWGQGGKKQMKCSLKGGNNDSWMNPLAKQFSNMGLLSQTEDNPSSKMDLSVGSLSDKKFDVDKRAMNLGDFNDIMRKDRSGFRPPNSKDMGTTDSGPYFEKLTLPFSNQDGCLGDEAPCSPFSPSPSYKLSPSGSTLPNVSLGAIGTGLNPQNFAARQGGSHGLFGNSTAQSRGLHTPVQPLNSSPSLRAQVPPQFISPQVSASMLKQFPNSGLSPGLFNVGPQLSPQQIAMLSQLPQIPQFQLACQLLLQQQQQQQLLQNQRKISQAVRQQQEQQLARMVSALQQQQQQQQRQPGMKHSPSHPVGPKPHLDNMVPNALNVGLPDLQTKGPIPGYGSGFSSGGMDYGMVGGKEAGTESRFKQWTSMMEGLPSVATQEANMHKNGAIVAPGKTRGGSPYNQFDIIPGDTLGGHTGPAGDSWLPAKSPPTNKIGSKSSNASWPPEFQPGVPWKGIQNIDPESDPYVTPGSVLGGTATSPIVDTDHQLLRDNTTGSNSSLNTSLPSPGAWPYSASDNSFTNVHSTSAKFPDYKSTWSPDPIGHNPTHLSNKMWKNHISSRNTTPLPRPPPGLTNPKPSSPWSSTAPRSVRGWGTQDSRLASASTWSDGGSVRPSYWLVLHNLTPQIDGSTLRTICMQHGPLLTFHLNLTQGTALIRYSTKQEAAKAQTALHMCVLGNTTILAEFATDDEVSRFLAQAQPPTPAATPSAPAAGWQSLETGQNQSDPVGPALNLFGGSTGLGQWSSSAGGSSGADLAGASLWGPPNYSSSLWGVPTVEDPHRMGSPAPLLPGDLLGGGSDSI
UniProt Q9Y4E8: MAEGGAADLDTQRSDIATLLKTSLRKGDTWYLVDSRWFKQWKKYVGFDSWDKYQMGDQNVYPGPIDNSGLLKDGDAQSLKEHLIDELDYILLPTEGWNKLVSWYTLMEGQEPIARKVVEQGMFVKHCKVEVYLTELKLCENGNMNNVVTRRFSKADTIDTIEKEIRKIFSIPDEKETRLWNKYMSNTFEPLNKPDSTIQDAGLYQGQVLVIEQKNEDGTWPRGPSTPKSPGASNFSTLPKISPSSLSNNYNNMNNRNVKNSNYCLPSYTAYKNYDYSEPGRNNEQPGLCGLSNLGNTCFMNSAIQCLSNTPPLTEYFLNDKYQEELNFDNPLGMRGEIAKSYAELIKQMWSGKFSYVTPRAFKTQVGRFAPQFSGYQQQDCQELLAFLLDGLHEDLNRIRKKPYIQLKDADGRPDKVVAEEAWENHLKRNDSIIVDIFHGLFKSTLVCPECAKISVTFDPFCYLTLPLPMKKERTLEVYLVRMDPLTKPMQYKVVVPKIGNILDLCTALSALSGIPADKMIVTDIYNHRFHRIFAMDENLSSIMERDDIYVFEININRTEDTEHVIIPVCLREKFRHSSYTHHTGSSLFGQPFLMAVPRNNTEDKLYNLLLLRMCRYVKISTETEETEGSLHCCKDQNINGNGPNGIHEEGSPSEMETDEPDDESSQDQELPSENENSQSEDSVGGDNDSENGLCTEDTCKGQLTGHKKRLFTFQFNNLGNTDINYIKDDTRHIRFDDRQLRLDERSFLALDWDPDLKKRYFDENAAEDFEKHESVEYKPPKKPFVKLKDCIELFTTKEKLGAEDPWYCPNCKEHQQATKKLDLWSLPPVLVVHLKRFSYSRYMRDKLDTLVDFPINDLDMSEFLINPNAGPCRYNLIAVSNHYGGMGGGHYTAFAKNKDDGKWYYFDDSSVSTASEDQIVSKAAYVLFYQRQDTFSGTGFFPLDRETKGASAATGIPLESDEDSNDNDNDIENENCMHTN
UniProt Q9Y3X0: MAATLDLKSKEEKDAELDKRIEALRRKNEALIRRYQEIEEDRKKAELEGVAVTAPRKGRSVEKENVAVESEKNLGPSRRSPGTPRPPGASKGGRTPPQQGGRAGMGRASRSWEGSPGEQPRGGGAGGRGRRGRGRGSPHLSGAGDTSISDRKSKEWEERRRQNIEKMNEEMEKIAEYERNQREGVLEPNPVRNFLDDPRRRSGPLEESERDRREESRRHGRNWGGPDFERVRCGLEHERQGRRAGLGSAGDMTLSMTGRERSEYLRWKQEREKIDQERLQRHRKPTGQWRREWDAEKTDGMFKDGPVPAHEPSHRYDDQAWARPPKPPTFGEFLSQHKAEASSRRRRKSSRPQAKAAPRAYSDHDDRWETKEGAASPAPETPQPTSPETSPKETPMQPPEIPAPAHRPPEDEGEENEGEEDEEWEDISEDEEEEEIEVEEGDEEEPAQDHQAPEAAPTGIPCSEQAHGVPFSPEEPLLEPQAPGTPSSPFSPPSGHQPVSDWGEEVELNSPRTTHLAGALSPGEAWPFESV
UniProt Q9Y5K6, whole entry: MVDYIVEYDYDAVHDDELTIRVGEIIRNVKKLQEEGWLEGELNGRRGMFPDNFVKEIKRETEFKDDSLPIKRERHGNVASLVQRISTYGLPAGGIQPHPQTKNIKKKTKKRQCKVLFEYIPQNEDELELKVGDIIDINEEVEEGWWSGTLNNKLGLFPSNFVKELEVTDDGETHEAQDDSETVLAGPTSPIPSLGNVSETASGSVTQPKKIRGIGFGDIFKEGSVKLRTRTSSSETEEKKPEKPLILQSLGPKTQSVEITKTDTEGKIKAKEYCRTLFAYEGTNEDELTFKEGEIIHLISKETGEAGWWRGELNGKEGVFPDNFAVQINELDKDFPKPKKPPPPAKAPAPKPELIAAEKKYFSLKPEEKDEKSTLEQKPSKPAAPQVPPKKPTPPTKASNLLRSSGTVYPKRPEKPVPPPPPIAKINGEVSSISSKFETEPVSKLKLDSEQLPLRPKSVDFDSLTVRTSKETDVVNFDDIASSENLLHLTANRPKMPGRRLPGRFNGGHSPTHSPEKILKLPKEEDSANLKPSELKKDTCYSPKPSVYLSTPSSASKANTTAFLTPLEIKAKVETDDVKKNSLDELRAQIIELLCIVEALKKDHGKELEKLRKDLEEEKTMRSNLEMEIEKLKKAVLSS

Compound in this test: Nc1nc2c(ncn2[C@@H]2O[C@H](COP(=O)(O)OP(=O)(O)OP(=O)(O)O)[C@@H](O)[C@H]2O)c(=O)[nH]1 [guanosine triphosphate]
Kind of test: NP40-soluble protein abundance relative to vehicle (solubility fold change) (ratio); higher = more soluble protein in presence of GTP. As for the experimental part:
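Solubility proteome profiling in Jurkat crude lysate. Lysate was treated with Mg-GTP (0.1-10 mM) for 10 min at room temperature and 3 min at 37 °C, then solubilised with 0.8% NP40 and benzonase, followed by ultracentrifugation. Proteins were quantified by TMT10 LC-MS/MS; the value is the NP40-soluble abundance relative to the NP40-processed vehicle, from 3 independent experiments.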

In the case of UniProt Q9UPQ9 and related entries, the NP40-soluble protein abundance runs as follows: (concentration: 0.1mM) 0.993 ± 0.052; (concentration: 0.5mM) 0.969 ± 0.074; (concentration: 1mM) 1.03 ± 0.071; (concentration: 2mM) 1.02 ± 0.12; (concentration: 4mM) 1.03 ± 0.077; (concentration: 6mM) 1.07 ± 0.098. The NP40-soluble protein abundance is, setting by setting: (concentration: 8mM) 1.08 ± 0.04; (concentration: 10mM) 1.11 ± 0.093.

As for USP15 (UniProt Q9Y4E8), the NP40-soluble protein abundance was determined as 1 ± 0.045 (concentration: 0.1mM); 0.975 ± 0.035 (concentration: 0.5mM); 0.991 ± 0.046 (concentration: 1mM); 0.967 ± 0.041 (concentration: 2mM); 0.985 ± 0.035 (concentration: 4mM); 0.961 ± 0.034 (concentration: 6mM). The NP40-soluble protein abundance (concentration: 8mM) turned out to be 0.979 ± 0.055 and the NP40-soluble protein abundance (concentration: 10mM) came to 0.936 ± 0.013.

For the target CCDC9 (UniProt Q9Y3X0), the NP40-soluble protein abundance is, setting by setting: (concentration: 0.1mM) 1.136 ± 0.0076; (concentration: 0.5mM) 1.04 ± 0.059; (concentration: 1mM) 1.22 ± 0.073; (concentration: 2mM) 1.15 ± 0.034; (concentration: 4mM) 1.163 ± 0.0089; (concentration: 6mM) 1.18 ± 0.1. Also, the NP40-soluble protein abundance by setting is: (concentration: 8mM) 1.16 ± 0.043; (concentration: 10mM) 1.26 ± 0.055.

With CD2AP (UniProt Q9Y5K6), the NP40-soluble protein abundance (concentration: 0.1mM) was 0.957 ± 0.047; the NP40-soluble protein abundance (concentration: 0.5mM) stood at 0.98 ± 0.041; the NP40-soluble protein abundance (concentration: 1mM) amounted to 0.975 ± 0.057; the NP40-soluble protein abundance (concentration: 2mM) came to 0.953 ± 0.075; the NP40-soluble protein abundance (concentration: 4mM) worked out at 0.938 ± 0.054; the NP40-soluble protein abundance (concentration: 6mM) came out at 0.957 ± 0.062. The NP40-soluble protein abundance runs as follows: (concentration: 8mM) 0.97 ± 0.052; (concentration: 10mM) 0.974 ± 0.064.

For the target MRPS2 (UniProt Q9Y399), the NP40-soluble protein abundance runs as follows: (concentration: 0.1mM) 1.11 ± 0.094; (concentration: 0.5mM) 1.19 ± 0.2; (concentration: 1mM) 1.25 ± 0.3; (concentration: 2mM) 1.34 ± 0.38; (concentration: 4mM) 1.37 ± 0.41; (concentration: 6mM) 1.31 ± 0.4. In addition, the NP40-soluble protein abundance is 1.27 ± 0.33 (concentration: 8mM) and 1.18 ± 0.3 (concentration: 10mM).

The values above are taken from the supplement of paper PMC6411743.
